Reference: the M2OR odorant receptor database
This is one part of the list. The calls were merged from several studies; some rest on single wells.

What was measured:
Settings in all cases: stereoisomer not certain
O11L1 = test system: T1, O11L1
T1 sequence (whole entry): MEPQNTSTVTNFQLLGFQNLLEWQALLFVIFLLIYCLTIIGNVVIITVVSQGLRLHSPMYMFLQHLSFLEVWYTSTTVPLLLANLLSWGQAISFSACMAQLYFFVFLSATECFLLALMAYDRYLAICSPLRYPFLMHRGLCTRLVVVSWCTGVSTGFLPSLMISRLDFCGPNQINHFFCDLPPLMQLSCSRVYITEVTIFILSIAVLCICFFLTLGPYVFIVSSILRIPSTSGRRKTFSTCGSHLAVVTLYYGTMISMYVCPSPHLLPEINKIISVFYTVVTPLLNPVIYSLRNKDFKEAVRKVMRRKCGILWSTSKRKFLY
Procedure, shortened: (§1)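 Transient luciferase assays in mammalian cell lines were common, though methods varied by source. The values come from published papers and their supplementary material, with extra details from the original authors when needed. Responsive refers to a measured signal the original authors judged statistically different from baseline, and non-responsive (inactive) to the remainder.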

O12D2 = test system: T2, O12D2
T2 sequence (whole entry): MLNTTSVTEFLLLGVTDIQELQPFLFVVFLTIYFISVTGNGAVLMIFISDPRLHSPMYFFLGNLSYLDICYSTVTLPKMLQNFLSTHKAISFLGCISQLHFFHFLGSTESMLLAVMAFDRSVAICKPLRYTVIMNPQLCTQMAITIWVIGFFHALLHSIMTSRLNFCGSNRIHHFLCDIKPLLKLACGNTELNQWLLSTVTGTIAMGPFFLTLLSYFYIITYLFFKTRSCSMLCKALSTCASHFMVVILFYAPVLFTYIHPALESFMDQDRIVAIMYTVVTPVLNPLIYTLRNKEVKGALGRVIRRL
Procedure, shortened: as §1

O13C3 = test system: T3, O13C3
T3 sequence (whole entry): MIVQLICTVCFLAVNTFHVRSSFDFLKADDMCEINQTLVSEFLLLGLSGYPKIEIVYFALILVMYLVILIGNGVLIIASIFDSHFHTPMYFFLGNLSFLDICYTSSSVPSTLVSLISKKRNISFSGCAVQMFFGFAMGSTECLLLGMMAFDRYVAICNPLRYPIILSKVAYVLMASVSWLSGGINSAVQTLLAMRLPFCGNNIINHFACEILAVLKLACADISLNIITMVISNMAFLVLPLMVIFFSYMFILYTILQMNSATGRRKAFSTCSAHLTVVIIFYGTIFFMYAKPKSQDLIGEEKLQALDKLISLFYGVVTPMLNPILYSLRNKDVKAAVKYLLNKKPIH
Procedure, shortened: as §1

O13C5 = test system: T4, O13C5
T4 sequence (whole entry): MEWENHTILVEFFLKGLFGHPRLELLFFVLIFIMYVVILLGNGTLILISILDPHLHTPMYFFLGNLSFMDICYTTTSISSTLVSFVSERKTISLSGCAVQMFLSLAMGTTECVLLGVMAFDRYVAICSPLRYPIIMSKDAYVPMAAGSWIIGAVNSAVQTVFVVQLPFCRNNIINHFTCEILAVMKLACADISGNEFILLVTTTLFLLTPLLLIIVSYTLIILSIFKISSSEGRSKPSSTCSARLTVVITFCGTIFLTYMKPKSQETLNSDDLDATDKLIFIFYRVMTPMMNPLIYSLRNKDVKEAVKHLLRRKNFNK
Procedure, shortened: as §1

O13C7 = test system: T5, O13C7
T5 sequence (whole entry): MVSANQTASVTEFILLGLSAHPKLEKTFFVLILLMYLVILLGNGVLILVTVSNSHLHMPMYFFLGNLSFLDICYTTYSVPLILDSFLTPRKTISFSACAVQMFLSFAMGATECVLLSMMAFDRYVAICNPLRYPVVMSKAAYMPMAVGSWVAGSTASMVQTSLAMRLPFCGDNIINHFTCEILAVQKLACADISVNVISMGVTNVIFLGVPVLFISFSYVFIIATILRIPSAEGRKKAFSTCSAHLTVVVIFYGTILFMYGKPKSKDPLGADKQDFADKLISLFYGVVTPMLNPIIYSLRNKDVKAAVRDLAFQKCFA
Procedure, shortened: as §1

O13C9 = test system: T6, O13C9
T6 sequence (whole entry): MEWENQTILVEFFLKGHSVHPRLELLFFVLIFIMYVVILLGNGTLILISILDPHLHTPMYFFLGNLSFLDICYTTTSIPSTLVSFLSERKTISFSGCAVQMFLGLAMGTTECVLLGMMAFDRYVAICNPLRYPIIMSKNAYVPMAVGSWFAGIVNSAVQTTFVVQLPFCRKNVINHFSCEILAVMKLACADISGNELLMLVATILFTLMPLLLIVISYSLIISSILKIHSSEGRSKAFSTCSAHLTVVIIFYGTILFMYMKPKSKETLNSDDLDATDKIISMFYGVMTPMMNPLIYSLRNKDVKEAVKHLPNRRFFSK
Procedure, shortened: as §1

O13D1 [1] = test system: T7, O13D1
T7 sequence (whole entry): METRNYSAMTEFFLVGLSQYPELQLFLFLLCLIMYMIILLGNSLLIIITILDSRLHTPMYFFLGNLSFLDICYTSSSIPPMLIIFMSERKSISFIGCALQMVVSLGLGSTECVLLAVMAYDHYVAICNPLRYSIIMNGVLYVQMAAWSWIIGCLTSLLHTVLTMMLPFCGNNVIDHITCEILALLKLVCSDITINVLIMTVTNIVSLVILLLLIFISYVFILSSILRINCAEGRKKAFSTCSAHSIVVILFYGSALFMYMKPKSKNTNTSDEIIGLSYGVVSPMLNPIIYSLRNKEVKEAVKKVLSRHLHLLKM
Procedure, shortened: as §1

O13D1 [2] = test system: T8, O13D1; remark: listed apart in the source
T8 sequence (whole entry): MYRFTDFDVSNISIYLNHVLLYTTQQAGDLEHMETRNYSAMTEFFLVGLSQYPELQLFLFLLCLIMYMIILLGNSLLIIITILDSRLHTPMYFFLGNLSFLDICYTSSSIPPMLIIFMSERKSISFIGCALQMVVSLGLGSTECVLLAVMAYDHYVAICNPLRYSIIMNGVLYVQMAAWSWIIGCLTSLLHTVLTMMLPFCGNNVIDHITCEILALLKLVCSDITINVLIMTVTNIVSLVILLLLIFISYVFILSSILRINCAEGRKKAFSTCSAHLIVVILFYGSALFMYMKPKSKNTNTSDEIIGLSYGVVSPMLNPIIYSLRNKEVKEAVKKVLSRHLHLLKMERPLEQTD
Procedure, shortened: as §1

O13F1 = test system: T9, O13F1
T9 sequence (whole entry): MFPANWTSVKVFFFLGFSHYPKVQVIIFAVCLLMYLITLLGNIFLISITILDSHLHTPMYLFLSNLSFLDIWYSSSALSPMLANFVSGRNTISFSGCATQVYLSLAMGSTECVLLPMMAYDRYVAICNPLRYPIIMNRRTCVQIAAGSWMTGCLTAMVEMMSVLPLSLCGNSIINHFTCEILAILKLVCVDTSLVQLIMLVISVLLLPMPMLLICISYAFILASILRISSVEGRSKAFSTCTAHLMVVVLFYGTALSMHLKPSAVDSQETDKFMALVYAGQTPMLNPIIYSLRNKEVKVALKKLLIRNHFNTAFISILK
Procedure, shortened: as §1

O13G1 = test system: T10, O13G1
T10 sequence (whole entry): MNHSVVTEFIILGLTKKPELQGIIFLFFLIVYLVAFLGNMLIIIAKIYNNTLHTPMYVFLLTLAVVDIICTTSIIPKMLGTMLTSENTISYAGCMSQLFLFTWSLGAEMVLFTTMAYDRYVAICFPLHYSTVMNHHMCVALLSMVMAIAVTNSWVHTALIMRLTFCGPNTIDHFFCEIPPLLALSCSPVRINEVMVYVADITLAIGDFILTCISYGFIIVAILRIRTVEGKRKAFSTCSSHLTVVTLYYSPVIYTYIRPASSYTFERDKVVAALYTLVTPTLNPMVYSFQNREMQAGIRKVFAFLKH
Procedure, shortened: as §1

Measured: odorant receptor agonist call;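 note: active if original authors judged signal statistically different from baseline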

CS
inactive: all assays above
